Measured values reported in paper PMC4476799, “Englerin A Agonizes the TRPC4/C5 Cation Channels to Inhibit Tumor Cell Line Proliferation” (PLoS ONE, 2015).
This continues a long series; more values of the same kind are listed elsewhere.

Test system: cancer cell lines from the cancer cell line encyclopedia (CCLE)
Test: Cell line profiling (CLiP) proliferation experiment
Type: cell-based
Parameters: ACTIVITY_AREA: scale not given here; AMAX: unit not given here
Method: Compound profiling experiment and data analysis was performed as previously described. Data was imported and plotted using the Tibco Spotfire DXP application. Lines were categorized as sensitive, intermediate and refractory as follows: Amax<-40 & Inflection Point <2 ~ Sensitive, Amax>-20 & Inflection Point >10 ~ Refractory, all else were called Intermediate. Cancer Cell line HG-U133 Plus 2 data was processed and normalized as described. […] Five sets of refractory cell lines were generated from the pool of refractory cell lines trying to match the lineage composition of the set of sensitive cell lines. The limma package was used as previously described to perform the statistical comparison.

[1] = 697 (haematopoietic_and_lymphoid_tissue)
[2] = CAL-54, kidney, renal_cell_carcinoma
[3] = CMK-11-5 (haematopoietic_and_lymphoid_tissue)
[4] = COLO 775 (haematopoietic_and_lymphoid_tissue)

Q: What does the source list for `CC(C)[C@@]12C[C@@H](O)[C@@](C)(O1)[C@@H]1CC[C@@H](C)[C@H]1[C@@H]2OC(=O)/C=C/c1ccccc1` [Englerin B]?
A: ACTIVITY_AREA (22Rv1 (prostate)): 30.61; AMAX (22Rv1 (prostate)): -53.2; RESPONSE (22Rv1 (prostate)): INTERMEDIATE; ACTIVITY_AREA [1]: 47.18; AMAX [1]: -80.98; RESPONSE [1]: INTERMEDIATE; ACTIVITY_AREA (769-P (kidney)): 13.6; AMAX (769-P (kidney)): -49.16; RESPONSE (769-P (kidney)): INTERMEDIATE; ACTIVITY_AREA (8305C (thyroid)): 19.13; AMAX (8305C (thyroid)): -42.05; RESPONSE (8305C (thyroid)): INTERMEDIATE; ACTIVITY_AREA (A4/Fuk cells): 67.88; AMAX (A4/Fuk cells): -69.84; RESPONSE (A4/Fuk cells): INTERMEDIATE; ACTIVITY_AREA (A101D cells): 15.59; AMAX (A101D cells): -37.08; RESPONSE (A101D cells): INTERMEDIATE; ACTIVITY_AREA (A549 cells): 37.23; AMAX (A549 cells): -58.53; RESPONSE (A549 cells): INTERMEDIATE; ACTIVITY_AREA (A2058 cells): 56.89; AMAX (A2058 cells): -70.85; RESPONSE (A2058 cells): INTERMEDIATE; ACTIVITY_AREA (A2780 cells): 23.16; AMAX (A2780 cells): -68.66; RESPONSE (A2780 cells): INTERMEDIATE; ACTIVITY_AREA (A-253 cells): 47.22; AMAX (A-253 cells): -88.59; RESPONSE (A-253 cells): INTERMEDIATE; ACTIVITY_AREA (A-375 cells): 20.24; AMAX (A-375 cells): -2.69; RESPONSE (A-375 cells): REFRACTORY; ACTIVITY_AREA (A-673 cells): 9.6; AMAX (A-673 cells): -13.83; RESPONSE (A-673 cells): REFRACTORY; ACTIVITY_AREA (ABC-1 cells): 13.47; AMAX (ABC-1 cells): -42.78; RESPONSE (ABC-1 cells): INTERMEDIATE; ACTIVITY_AREA (ACC-MESO-1 cells): 116.48; AMAX (ACC-MESO-1 cells): -48.31; RESPONSE (ACC-MESO-1 cells): INTERMEDIATE; ACTIVITY_AREA (ACHN cells): 59.56; AMAX (ACHN cells): -29.85; RESPONSE (ACHN cells): INTERMEDIATE; ACTIVITY_AREA (AMO-1 cells): 38.41; AMAX (AMO-1 cells): -82.44; RESPONSE (AMO-1 cells): INTERMEDIATE; ACTIVITY_AREA (AU565 cells): 45.07; AMAX (AU565 cells): -69.47; RESPONSE (AU565 cells): INTERMEDIATE; ACTIVITY_AREA (BDCM cells): 30.98; AMAX (BDCM cells): -76.17; RESPONSE (BDCM cells): INTERMEDIATE; ACTIVITY_AREA (BHY cells): 30; AMAX (BHY cells): -53.57; RESPONSE (BHY cells): INTERMEDIATE; ACTIVITY_AREA (BICR 6 cells): 60.16; AMAX (BICR 6 cells): -61.58; RESPONSE (BICR 6 cells): INTERMEDIATE; ACTIVITY_AREA (BICR 16 cells): 117.1; AMAX (BICR 16 cells): -74.26; RESPONSE (BICR 16 cells): INTERMEDIATE; ACTIVITY_AREA (BICR 22 cells): 28.9; AMAX (BICR 22 cells): -66.9; RESPONSE (BICR 22 cells): INTERMEDIATE; ACTIVITY_AREA (BL-41 cells): 23.12; AMAX (BL-41 cells): -91.54; RESPONSE (BL-41 cells): INTERMEDIATE; ACTIVITY_AREA (BT-20 cells): 21.1; AMAX (BT-20 cells): -41.63; RESPONSE (BT-20 cells): INTERMEDIATE; ACTIVITY_AREA (BV-173 cells): 54.37; AMAX (BV-173 cells): -88.99; RESPONSE (BV-173 cells): INTERMEDIATE; ACTIVITY_AREA (BxPC-3 (pancreas)): 22.8; AMAX (BxPC-3 (pancreas)): -60.21; RESPONSE (BxPC-3 (pancreas)): INTERMEDIATE; ACTIVITY_AREA (C32 cells): 19.38; AMAX (C32 cells): -36.76; RESPONSE (C32 cells): INTERMEDIATE; ACTIVITY_AREA (CAL-29 (urinary_tract)): 38.07; AMAX (CAL-29 (urinary_tract)): -71.25; RESPONSE (CAL-29 (urinary_tract)): INTERMEDIATE; ACTIVITY_AREA (CAL-51 cells): 23.14; AMAX (CAL-51 cells): -39.24; RESPONSE (CAL-51 cells): INTERMEDIATE; ACTIVITY_AREA [2]: 36.45; AMAX [2]: -46.52; RESPONSE [2]: INTERMEDIATE; ACTIVITY_AREA (CAL-54 cells): 36.45; AMAX (CAL-54 cells): -46.52; RESPONSE (CAL-54 cells): INTERMEDIATE; ACTIVITY_AREA (CAL-78, bone, dedifferentiated): 32.55; AMAX (CAL-78, bone, dedifferentiated): -32.34; RESPONSE (CAL-78, bone, dedifferentiated): INTERMEDIATE; ACTIVITY_AREA (CAL-78 cells): 32.55; AMAX (CAL-78 cells): -32.34; RESPONSE (CAL-78 cells): INTERMEDIATE; ACTIVITY_AREA (CAL-85-1, breast, NS): 10.29; AMAX (CAL-85-1, breast, NS): -39.9; RESPONSE (CAL-85-1, breast, NS): INTERMEDIATE; ACTIVITY_AREA (CAL-85-1 cells): 10.29; AMAX (CAL-85-1 cells): -39.9; RESPONSE (CAL-85-1 cells): INTERMEDIATE; ACTIVITY_AREA (CAL-120 cells): 23.97; AMAX (CAL-120 cells): -51.61; RESPONSE (CAL-120 cells): INTERMEDIATE; ACTIVITY_AREA (CAMA-1 (breast)): 21.9; AMAX (CAMA-1 (breast)): -43.81; RESPONSE (CAMA-1 (breast)): INTERMEDIATE; ACTIVITY_AREA (CAS-1 cells): 8.27; AMAX (CAS-1 cells): -27.8; RESPONSE (CAS-1 cells): INTERMEDIATE; ACTIVITY_AREA (CCK-81 cells): 19.43; AMAX (CCK-81 cells): -61.47; RESPONSE (CCK-81 cells): INTERMEDIATE; ACTIVITY_AREA (CCRF-CEM cells): 12.38; AMAX (CCRF-CEM cells): -48.26; RESPONSE (CCRF-CEM cells): INTERMEDIATE; ACTIVITY_AREA (CFPAC-1 (pancreas)): 25.86; AMAX (CFPAC-1 (pancreas)): -50.08; RESPONSE (CFPAC-1 (pancreas)): INTERMEDIATE; ACTIVITY_AREA (CHL-1 cells): 19.98; AMAX (CHL-1 cells): -60.11; RESPONSE (CHL-1 cells): INTERMEDIATE; ACTIVITY_AREA (CHP-212 cells): 33.44; AMAX (CHP-212 cells): -55.99; RESPONSE (CHP-212 cells): INTERMEDIATE; ACTIVITY_AREA (CI-1 cells): 19.7; AMAX (CI-1 cells): 16.67; RESPONSE (CI-1 cells): REFRACTORY; ACTIVITY_AREA (CMK cells): 61.63; AMAX (CMK cells): -8.06; RESPONSE (CMK cells): REFRACTORY; ACTIVITY_AREA [3]: 101.26; AMAX [3]: -51.95; RESPONSE [3]: INTERMEDIATE; ACTIVITY_AREA (CML-T1 cells): 42.33; AMAX (CML-T1 cells): -73.13; RESPONSE (CML-T1 cells): INTERMEDIATE; ACTIVITY_AREA (COLO 205 cells): 33.02; AMAX (COLO 205 cells): -61.38; RESPONSE (COLO 205 cells): INTERMEDIATE; ACTIVITY_AREA (COLO 668 cells): 28.83; AMAX (COLO 668 cells): -55.03; RESPONSE (COLO 668 cells): INTERMEDIATE; ACTIVITY_AREA (COLO 741 cells): 12.88; AMAX (COLO 741 cells): -37.55; RESPONSE (COLO 741 cells): INTERMEDIATE; ACTIVITY_AREA [4]: 59.22; AMAX [4]: -93.44; RESPONSE [4]: INTERMEDIATE; ACTIVITY_AREA (COLO 792 cells): 11.82; AMAX (COLO 792 cells): -22.14; RESPONSE (COLO 792 cells): INTERMEDIATE; ACTIVITY_AREA (COLO 829 cells): 31.7; AMAX (COLO 829 cells): -7.17; RESPONSE (COLO 829 cells): REFRACTORY; ACTIVITY_AREA (COLO-320 (large_intestine)): 102.29; AMAX (COLO-320 (large_intestine)): -70.01; RESPONSE (COLO-320 (large_intestine)): INTERMEDIATE; ACTIVITY_AREA (COLO-680N (oesophagus)): 26.11; AMAX (COLO-680N (oesophagus)): -34.59; RESPONSE (COLO-680N (oesophagus)): INTERMEDIATE; ACTIVITY_AREA (COLO-699 (lung)): 153.56; AMAX (COLO-699 (lung)): -71.88; RESPONSE (COLO-699 (lung)): INTERMEDIATE; ACTIVITY_AREA (COLO-704 cells): 138.81; AMAX (COLO-704 cells): -63.22; RESPONSE (COLO-704 cells): INTERMEDIATE; ACTIVITY_AREA (COR-L23 (lung)): 32.4
